Results deposited as PubChem BioAssay AID1224830 (NIAID, 2016)

Test: 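Genes whose knock-down alters the TNF-alpha reporter response to LPS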 (primary screen)
Cells: human THP-1 monocytic leukaemia cells, TNF dual-luciferase reporter clone, PMA-differentiated to macrophage-like cells
Reagent: siRNA pool against human genes, 50 nM
Duration: LPS for 4 h, given about 3 days after siRNA transfection
Challenge: bacterial LPS (TLR4 ligand), 10 ng/ml
Measured: 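Ratio of firefly to renilla light, scaled to the plate median and expressed as a robust z-score per replicate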
Direction: TNF reporter robust z-score: higher = stronger TNF reporter response to LPS
Hit rule: 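Each well counts as active if its z-score is over 2.8 or under -1.5; controls are left without a call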
Here is an unselected part of about 18,000 reagents tested. About 2,900 of them (16%) count as active. 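Calls are made per well; low scores hint the gene aids the LPS response, high scores that it dampens it.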 The numbers tell different reagents against one gene apart. Repeated entries: four replicate wells of each siRNA pool. No sequences are given here.

Which result is listed for ZC3HAV1L?
TNF reporter robust z-score: -0.2; call: inactive

With ZC3HAV1L, what was measured?
TNF reporter robust z-score: 0.7; call: inactive

What did the screen give for ZC3HAV1L?
TNF reporter robust z-score: 0.14; call: inactive

How did the screen score ZC3HAV1L?
TNF reporter robust z-score: 0.89; call: inactive

With OPCML, what does the deposit list?
TNF reporter robust z-score: 0.75; call: inactive

What is on record for OPCML?
TNF reporter robust z-score: -0.1; call: inactive

How did the screen score OPCML?
TNF reporter robust z-score: -0.21; call: inactive

What did the screen give for OPCML?
TNF reporter robust z-score: -0.7; call: inactive

For FDX1, what was measured?
TNF reporter robust z-score: -1.92; call: active

For FDX1, what does the deposit list?
TNF reporter robust z-score: -1.55; call: active

For FDX1, how do the results read?
TNF reporter robust z-score: -1.82; call: active

What did the screen give for FDX1?
TNF reporter robust z-score: -1.4; call: inactive

Which result is listed for EIF5?
TNF reporter robust z-score: 0.14; call: inactive

Which result is listed for EIF5?
TNF reporter robust z-score: 0.29; call: inactive

With EIF5, what does the deposit list?
TNF reporter robust z-score: -0.06; call: inactive

With EIF5, what does the deposit list?
TNF reporter robust z-score: 0.04; call: inactive

With DSCAM, how do the results read?
TNF reporter robust z-score: 0.82; call: inactive

What did the screen give for DSCAM?
TNF reporter robust z-score: 0.04; call: inactive

For DSCAM, what does the deposit list?
TNF reporter robust z-score: 0.45; call: inactive

For DSCAM, how do the results read?
TNF reporter robust z-score: 0.19; call: inactive

For RASL12, how do the results read?
TNF reporter robust z-score: 0.89; call: inactive

What is on record for RASL12?
TNF reporter robust z-score: 1.51; call: inactive

What did the screen give for RASL12?
TNF reporter robust z-score: 0.3; call: inactive

What is on record for RASL12?
TNF reporter robust z-score: 1.32; call: inactive

For SLC8A2, how do the results read?
TNF reporter robust z-score: -1.33; call: inactive

How did the screen score SLC8A2?
TNF reporter robust z-score: -0.3; call: inactive

For SLC8A2, what was measured?
TNF reporter robust z-score: -0.94; call: inactive

With SLC8A2, what was measured?
TNF reporter robust z-score: 0.49; call: inactive

For ERI1, what was measured?
TNF reporter robust z-score: -0.68; call: inactive

Which result is listed for ERI1?
TNF reporter robust z-score: 0.17; call: inactive

What is on record for ERI1?
TNF reporter robust z-score: -0.13; call: inactive

Which result is listed for ERI1?
TNF reporter robust z-score: -0.17; call: inactive

For ALG13 #1, what does the deposit list?
TNF reporter robust z-score: 1.93; call: inactive

What is on record for ALG13 #1?
TNF reporter robust z-score: 1.22; call: inactive

With ALG13 #1, what does the deposit list?
TNF reporter robust z-score: 2.3; call: inactive

With ALG13 #1, how do the results read?
TNF reporter robust z-score: 2.52; call: inactive

Which result is listed for ALG13 #2?
TNF reporter robust z-score: 1.97; call: inactive

For ALG13 #2, what does the deposit list?
TNF reporter robust z-score: 2.36; call: inactive

What did the screen give for ALG13 #2?
TNF reporter robust z-score: 0.44; call: inactive

Which result is listed for ALG13 #2?
TNF reporter robust z-score: 1.23; call: inactive

For OR51F2, how do the results read?
TNF reporter robust z-score: -1.32; call: inactive

For OR51F2, how do the results read?
TNF reporter robust z-score: -0.6; call: inactive

With OR51F2, how do the results read?
TNF reporter robust z-score: -0.76; call: inactive

What did the screen give for OR51F2?
TNF reporter robust z-score: -0.38; call: inactive

Which result is listed for AUTS2?
TNF reporter robust z-score: 0.82; call: inactive

For AUTS2, what was measured?
TNF reporter robust z-score: 1.02; call: inactive

With AUTS2, what does the deposit list?
TNF reporter robust z-score: 0.36; call: inactive

For AUTS2, what was measured?
TNF reporter robust z-score: 1.53; call: inactive

Which result is listed for OAS1?
TNF reporter robust z-score: 1.14; call: inactive

For OAS1, how do the results read?
TNF reporter robust z-score: 1.91; call: inactive

What did the screen give for OAS1?
TNF reporter robust z-score: -0.52; call: inactive

For OAS1, what was measured?
TNF reporter robust z-score: 0.01; call: inactive

What is on record for ELAVL4?
TNF reporter robust z-score: 1.83; call: inactive

How did the screen score ELAVL4?
TNF reporter robust z-score: 1.21; call: inactive

What did the screen give for ELAVL4?
TNF reporter robust z-score: 1.41; call: inactive

With ELAVL4, what was measured?
TNF reporter robust z-score: 3.61; call: active

For SH3BGRL2, what does the deposit list?
TNF reporter robust z-score: 0.27; call: inactive

Which result is listed for SH3BGRL2?
TNF reporter robust z-score: -0.34; call: inactive

What is on record for SH3BGRL2?
TNF reporter robust z-score: -0.29; call: inactive

For SH3BGRL2, what was measured?
TNF reporter robust z-score: -0.22; call: inactive
